Laboratory results reported in PMC2194165.
Results are given in words; binding and its absence hold for the method and conditions named. For some of these results: Binding seen in cells or lysates may run through a third protein. Some results given as binding are weak or reduced against the parent protein; the word gives no strength. For some of these results: Where a sequence is shown, tags or fusion partners need not be part of it. Values belong to the molecule of their own block, whether it stands above or below them.

By UniProt entry, the sequences of proteins in these tests, tags left out. Where a name states a change or a piece, a line headed by the entry shows the natural chain unless it says otherwise.
UniProt O75716: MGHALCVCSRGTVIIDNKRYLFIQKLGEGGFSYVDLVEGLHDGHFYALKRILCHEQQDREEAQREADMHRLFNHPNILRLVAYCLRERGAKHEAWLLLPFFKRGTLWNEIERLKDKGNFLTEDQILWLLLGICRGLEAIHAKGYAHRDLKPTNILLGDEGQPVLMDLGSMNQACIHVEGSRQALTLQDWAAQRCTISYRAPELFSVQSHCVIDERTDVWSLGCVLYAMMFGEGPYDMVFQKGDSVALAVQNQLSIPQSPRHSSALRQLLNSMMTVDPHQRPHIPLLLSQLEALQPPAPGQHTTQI

Tests used:
[1] = molecular target: T1, GST-DRG1 (developmentally regulated GTP binding protein 1, full length) (UniProt Q9Y295); experiment: pull-down; GST-DRG1 saturated with beta-S-GDP or gamma-S-GTP, loaded onto a glutathione-Sepharose column, washed stringently, eluted with glutathione; western blot with MPSK1 antiserum
T1 sequence: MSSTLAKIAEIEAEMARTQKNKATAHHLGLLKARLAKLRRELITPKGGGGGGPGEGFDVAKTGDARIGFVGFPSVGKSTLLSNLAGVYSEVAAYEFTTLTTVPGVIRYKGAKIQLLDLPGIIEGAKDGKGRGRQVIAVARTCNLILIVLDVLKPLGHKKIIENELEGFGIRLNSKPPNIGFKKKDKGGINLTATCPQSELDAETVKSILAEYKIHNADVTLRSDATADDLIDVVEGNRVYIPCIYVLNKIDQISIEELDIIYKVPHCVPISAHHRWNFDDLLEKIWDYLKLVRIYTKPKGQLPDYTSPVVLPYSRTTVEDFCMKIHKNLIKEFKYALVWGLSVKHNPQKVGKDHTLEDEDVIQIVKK

[2] = molecular target: T1, GST-DRG1 (developmentally regulated GTP binding protein 1, full length); experiment: pull-down; MPSK1 expressed from NIH 3T3 cells copurified with GST-DRG1; data not shown
[3] = molecular target: MPSK1 (residues 13-305), N-terminal 6x His tag (human) (UniProt O75716); experiment: pull-down; immobilized His-tagged MPSK1 with six C-terminal truncation variants of DRG1; data not shown
[4] = molecular target: MPSK1 (residues 13-305), N-terminal 6x His tag (human) (UniProt O75716); experiment: pull-down; purified His-MPSK1 with GST-DRG1 or DRG1-N65 loaded onto a Ni-NTA column, washed stringently, eluted with 200 mM imidazole; SDS-PAGE; both purified

binding [1]: binds
Molecule: MPSK1 (residues 13-305), N-terminal 6x His tag (from UniProt O75716 13-305) (domain or fragment)

binding [2]: binds
Molecule: MPSK1 expressed in NIH 3T3 cells (from UniProt O75716 1-305)

binding [3]: binds
binding [4]: binds
B1: DRG1-N65 (region 1-65 of DRG1) (domain or fragment, UniProt Q9Y295 1-65)
chain: MSSTLAKIAEIEAEMARTQKNKATAHHLGLLKARLAKLRRELITPKGGGGGGPGEGFDVAKTGDA
